Measured data: PubChem BioAssay AID1259308 (NCATS, 2017)
Here is an unselected part of about 59,000 reagents tested. About 1,510 of all reagents (2.6%) were called active. 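Calls use total luciferase alone and ignore viability, so some active siRNAs may act by altering cell number.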 A number with no mark means an inactive call. Reagents against one gene are numbered here. No sequences are given here.

Aim: 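Candidate targets for better recombinant protein yield in mammalian cells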 (primary screen)
Cell system: human HEK293 embryonic kidney cells stably expressing firefly luciferase (HEK-CMV-Luc2-Hygro)
Reagents: single siRNA against human genes, 0.8 pmol siRNA per well
Timing: 72 h
Measurement: 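Reporter luminescence and viable-cell signal on separate replicate plates, given as percent of non-targeting control and median/MAD z-scores, plus per-cell luciferase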
Scale: total luciferase, z-score and total luciferase, % of control: higher = more reporter protein produced; luciferase per cell, z-score: higher = more reporter output per viable cell; viable cells, % of control: higher = more viable cells
Hit rule: 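An siRNA counts as active if its total luciferase robust z-score exceeds 3; genes with two or more such siRNAs out of three were retested with fresh siRNAs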
Meaning of the calls: active = raised luciferase; inactive = no rise

| gene symbol | reagent | total luciferase, z-score | total luciferase, % of control | luciferase per cell, z-score | viable cells, % of control |
| --- | --- | --- | --- | --- | --- |
| CACNG5 | 1 | 0.196 | 85.8 | 0.582 | 82.2 |
| CACNG5 | 2 | -0.68 | 68.4 | -0.00988 | 76.6 |
| CACNG5 | 3 | 0.0163 | 82.2 | -0.787 | 113 |
| NACAD | 1 | 0.297 | 87.8 | 0.328 | 90 |
| NACAD | 2 | 0.418 | 90.2 | 1.01 | 77.2 |
| NACAD | 3 | 0.11 | 84.1 | 0.405 | 84.4 |
| OGFRL1 | 1 | -0.61 | 69.8 | -0.852 | 97.6 |
| OGFRL1 | 2 | -0.597 | 70 | -1.04 | 103 |
| OGFRL1 | 3 | -0.0179 | 81.5 | -0.55 | 105 |
| ATXN1 | 1 | -0.0557 | 80.8 | 0.0262 | 89.6 |
| ATXN1 | 2 | -1.76 | 47 | -1.68 | 81.6 |
| ATXN1 | 3 | 5.07 (active) | 183 | 3.1 | 90.4 |
| QSOX2 | 1 | -0.994 | 62.1 | -1.7 | 108 |
| QSOX2 | 2 | -0.109 | 79.7 | -0.886 | 112 |
| QSOX2 | 3 | 0.286 | 87.6 | -0.513 | 112 |
| METTL21C | 1 | -0.402 | 73.9 | 0.136 | 79.7 |
| METTL21C | 2 | -1.39 | 54.3 | -1.29 | 85.2 |
| METTL21C | 3 | 3.68 (active) | 155 | 2.97 | 79.3 |
| CCDC117 | 1 | -0.284 | 76.2 | -0.78 | 105 |
| CCDC117 | 2 | -0.533 | 71.3 | -0.476 | 90.3 |
| CCDC117 | 3 | -1.39 | 54.3 | -0.23 | 64.4 |
| UCHL3 | 1 | 1.02 | 102 | -0.0324 | 115 |
| UCHL3 | 2 | 0.62 | 94.2 | -0.11 | 108 |
| UCHL3 | 3 | -0.327 | 75.4 | -0.18 | 88.3 |
| PLEKHS1 | 1 | -0.691 | 68.1 | -0.528 | 87.5 |
| PLEKHS1 | 2 | 0.808 | 98 | 0.375 | 99.2 |
| PLEKHS1 | 3 | 0.849 | 98.8 | 0.502 | 96.7 |
| HMGN4 | 1 | -0.919 | 63.6 | -0.679 | 85 |
| HMGN4 | 2 | 0.296 | 87.8 | 0.0737 | 96.2 |
| HMGN4 | 3 | -0.11 | 79.7 | 0.175 | 85.1 |
| LOC402715 | 1 | -0.661 | 68.7 | -0.0116 | 77 |
| LOC402715 | 2 | 1.05 | 103 | 1.18 | 84.3 |
| LOC402715 | 3 | 1.05 | 103 | 0.6 | 98.1 |
| ZNF484 | 1 | -0.422 | 73.5 | -0.0927 | 84.1 |
| ZNF484 | 2 | 0.388 | 89.6 | 0.808 | 80.9 |
| ZNF484 | 3 | -0.214 | 77.6 | -0.418 | 96.8 |
| LOC646030 | 1 | -0.933 | 63.3 | -0.821 | 87.8 |
| LOC646030 | 2 | 1.9 | 120 | 1.36 | 93.6 |
| LOC646030 | 3 | 0.19 | 85.7 | 0.576 | 82.3 |
| LOC646030 | 4 | 1.16 | 105 | 0.999 | 90.2 |
| LOC646030 | 5 | -0.109 | 79.7 | 0.493 | 78.2 |
| LOC646030 | 6 | 0.306 | 88 | -0.249 | 105 |

Entries listed so far whose gene name starts with A or a:
| gene symbol | reagent | total luciferase, z-score | total luciferase, % of control | luciferase per cell, z-score | viable cells, % of control |
| --- | --- | --- | --- | --- | --- |
| ATXN1 | 1 | -0.0557 | 80.8 | 0.0262 | 89.6 |
| ATXN1 | 2 | -1.76 | 47 | -1.68 | 81.6 |
| ATXN1 | 3 | 5.07 (active) | 183 | 3.1 | 90.4 |
